The supplement of paper PMC10849652
This is one part of the list.

Chains of the proteins cited; added tags and fusions are not shown. Lines headed by an entry give the natural chain unless they say otherwise; changes in a name come on top.
UniProt O15213: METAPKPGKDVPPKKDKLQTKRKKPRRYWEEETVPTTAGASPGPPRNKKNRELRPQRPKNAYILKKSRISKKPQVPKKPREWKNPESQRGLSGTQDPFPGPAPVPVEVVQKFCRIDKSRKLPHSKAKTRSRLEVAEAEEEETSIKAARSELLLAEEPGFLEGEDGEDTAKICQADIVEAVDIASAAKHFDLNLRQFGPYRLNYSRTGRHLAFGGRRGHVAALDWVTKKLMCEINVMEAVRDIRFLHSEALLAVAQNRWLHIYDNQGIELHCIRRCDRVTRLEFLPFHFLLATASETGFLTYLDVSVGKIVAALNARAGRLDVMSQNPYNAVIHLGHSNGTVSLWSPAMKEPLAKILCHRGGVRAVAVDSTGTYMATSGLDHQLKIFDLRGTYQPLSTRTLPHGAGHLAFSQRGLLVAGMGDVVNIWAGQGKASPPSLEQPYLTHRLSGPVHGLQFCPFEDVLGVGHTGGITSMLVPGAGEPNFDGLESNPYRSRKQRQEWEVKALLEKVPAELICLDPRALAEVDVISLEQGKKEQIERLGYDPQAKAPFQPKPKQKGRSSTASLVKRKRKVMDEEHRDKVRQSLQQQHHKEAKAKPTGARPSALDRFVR
UniProt P57081: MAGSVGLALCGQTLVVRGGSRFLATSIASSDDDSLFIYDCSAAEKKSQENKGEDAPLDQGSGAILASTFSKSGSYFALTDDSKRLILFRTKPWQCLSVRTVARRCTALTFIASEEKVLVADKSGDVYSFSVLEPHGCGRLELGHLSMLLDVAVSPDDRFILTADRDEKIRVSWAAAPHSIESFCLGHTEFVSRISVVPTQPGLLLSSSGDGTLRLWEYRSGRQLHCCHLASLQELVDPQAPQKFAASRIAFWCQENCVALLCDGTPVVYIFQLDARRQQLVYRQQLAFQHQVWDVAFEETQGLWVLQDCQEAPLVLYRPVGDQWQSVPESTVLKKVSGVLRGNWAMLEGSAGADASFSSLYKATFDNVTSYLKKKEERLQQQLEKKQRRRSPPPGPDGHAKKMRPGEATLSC
UniProt Q15061: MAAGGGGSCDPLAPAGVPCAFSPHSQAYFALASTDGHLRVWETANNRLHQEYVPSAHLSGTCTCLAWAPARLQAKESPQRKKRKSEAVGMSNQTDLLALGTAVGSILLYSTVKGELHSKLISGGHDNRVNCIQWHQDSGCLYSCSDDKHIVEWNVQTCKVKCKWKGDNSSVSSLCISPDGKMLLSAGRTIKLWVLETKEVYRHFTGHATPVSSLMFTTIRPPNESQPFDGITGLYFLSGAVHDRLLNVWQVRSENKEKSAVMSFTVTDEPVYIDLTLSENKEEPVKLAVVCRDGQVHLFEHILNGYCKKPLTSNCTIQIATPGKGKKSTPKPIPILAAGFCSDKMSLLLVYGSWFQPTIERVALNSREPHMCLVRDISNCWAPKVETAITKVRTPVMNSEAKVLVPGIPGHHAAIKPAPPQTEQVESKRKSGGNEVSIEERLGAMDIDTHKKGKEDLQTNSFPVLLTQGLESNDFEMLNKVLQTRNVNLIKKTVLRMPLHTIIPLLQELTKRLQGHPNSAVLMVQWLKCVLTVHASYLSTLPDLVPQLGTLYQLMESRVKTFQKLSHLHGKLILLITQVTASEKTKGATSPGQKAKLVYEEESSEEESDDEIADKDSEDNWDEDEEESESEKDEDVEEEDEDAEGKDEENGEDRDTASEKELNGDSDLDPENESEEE
UniProt Q96JC1: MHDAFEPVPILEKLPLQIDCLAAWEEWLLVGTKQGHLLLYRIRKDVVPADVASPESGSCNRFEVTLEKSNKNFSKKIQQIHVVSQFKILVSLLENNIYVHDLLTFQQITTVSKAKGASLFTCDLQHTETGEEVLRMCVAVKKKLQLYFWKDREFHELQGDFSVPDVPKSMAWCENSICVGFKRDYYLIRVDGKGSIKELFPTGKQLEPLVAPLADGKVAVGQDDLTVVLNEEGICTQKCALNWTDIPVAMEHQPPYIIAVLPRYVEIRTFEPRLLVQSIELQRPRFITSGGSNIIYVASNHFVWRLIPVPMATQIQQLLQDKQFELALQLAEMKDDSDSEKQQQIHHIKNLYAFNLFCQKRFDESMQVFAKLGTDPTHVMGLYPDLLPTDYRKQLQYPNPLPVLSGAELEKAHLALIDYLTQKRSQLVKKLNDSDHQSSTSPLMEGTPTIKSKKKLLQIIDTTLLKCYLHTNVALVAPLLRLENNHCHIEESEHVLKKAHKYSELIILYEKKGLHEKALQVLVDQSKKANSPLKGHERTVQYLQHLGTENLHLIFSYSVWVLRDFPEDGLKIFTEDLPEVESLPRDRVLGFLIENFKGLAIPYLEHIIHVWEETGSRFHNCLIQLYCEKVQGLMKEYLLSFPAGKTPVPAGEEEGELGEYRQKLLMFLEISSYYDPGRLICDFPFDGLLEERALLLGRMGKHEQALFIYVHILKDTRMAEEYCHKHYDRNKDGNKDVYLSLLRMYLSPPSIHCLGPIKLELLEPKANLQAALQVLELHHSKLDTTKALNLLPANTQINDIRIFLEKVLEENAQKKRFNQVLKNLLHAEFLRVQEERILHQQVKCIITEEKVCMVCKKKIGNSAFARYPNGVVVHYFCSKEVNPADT
UniProt O43516: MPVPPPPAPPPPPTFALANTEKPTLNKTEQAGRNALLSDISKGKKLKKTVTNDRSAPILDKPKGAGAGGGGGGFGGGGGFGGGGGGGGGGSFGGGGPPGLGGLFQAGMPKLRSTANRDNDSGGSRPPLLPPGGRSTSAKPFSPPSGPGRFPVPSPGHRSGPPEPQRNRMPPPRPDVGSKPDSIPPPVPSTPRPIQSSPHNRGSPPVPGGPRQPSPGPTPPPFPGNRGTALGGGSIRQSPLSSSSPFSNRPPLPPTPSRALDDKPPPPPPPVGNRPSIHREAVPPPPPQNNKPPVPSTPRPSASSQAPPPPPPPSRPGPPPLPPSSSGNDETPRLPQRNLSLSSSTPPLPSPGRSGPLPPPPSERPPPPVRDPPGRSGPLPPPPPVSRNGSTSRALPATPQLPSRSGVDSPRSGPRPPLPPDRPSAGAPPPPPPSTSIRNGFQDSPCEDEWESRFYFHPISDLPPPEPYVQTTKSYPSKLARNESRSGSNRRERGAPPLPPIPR
UniProt Q8IV63: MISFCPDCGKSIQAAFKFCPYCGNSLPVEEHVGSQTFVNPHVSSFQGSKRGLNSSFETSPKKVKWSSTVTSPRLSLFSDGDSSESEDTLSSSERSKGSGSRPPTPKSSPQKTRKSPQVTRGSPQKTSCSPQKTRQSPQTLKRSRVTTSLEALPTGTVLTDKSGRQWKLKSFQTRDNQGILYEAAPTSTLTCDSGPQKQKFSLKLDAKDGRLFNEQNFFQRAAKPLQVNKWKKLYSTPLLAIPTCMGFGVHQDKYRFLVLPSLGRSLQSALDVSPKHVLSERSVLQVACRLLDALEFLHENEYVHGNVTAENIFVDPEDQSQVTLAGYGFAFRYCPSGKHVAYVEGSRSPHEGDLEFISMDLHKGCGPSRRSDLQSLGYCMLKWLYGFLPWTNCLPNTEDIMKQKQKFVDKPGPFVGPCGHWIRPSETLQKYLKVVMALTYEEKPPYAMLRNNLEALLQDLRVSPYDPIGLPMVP
UniProt Q8IWA0: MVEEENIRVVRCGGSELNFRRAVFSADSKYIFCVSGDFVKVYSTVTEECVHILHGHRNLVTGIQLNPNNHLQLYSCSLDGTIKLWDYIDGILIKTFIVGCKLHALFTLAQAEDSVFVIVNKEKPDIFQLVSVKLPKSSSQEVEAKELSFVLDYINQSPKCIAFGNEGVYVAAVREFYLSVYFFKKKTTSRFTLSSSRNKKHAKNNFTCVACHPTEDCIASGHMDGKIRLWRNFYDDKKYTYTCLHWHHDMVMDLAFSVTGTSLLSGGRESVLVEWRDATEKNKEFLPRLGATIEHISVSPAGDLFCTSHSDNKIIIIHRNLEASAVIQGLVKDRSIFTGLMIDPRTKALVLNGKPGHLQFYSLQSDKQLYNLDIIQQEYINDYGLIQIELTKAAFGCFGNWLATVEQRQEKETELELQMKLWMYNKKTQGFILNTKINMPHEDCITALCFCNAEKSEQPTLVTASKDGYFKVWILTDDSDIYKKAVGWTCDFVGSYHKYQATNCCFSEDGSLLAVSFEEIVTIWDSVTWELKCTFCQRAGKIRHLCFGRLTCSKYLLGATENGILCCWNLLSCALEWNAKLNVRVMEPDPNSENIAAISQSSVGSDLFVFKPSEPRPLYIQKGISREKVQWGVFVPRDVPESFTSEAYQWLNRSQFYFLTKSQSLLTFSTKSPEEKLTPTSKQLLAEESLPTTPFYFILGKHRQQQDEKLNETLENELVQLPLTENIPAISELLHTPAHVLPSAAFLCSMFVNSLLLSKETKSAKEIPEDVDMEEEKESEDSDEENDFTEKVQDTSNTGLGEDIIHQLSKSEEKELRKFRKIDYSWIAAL
UniProt Q9NRW7: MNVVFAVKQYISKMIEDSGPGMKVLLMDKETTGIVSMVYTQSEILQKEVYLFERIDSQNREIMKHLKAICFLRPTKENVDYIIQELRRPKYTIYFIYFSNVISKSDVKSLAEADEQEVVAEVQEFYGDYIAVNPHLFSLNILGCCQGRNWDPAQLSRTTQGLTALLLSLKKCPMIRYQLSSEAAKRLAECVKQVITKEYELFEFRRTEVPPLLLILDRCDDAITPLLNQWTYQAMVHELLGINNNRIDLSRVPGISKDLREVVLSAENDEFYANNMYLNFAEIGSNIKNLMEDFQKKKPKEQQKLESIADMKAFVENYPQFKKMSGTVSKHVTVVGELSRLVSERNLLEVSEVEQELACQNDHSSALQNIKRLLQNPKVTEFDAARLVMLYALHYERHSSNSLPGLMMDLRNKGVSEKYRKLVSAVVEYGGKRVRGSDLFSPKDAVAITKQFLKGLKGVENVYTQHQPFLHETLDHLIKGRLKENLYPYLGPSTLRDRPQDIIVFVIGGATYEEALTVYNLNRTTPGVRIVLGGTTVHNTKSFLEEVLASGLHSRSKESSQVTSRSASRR
UniProt Q9NP79: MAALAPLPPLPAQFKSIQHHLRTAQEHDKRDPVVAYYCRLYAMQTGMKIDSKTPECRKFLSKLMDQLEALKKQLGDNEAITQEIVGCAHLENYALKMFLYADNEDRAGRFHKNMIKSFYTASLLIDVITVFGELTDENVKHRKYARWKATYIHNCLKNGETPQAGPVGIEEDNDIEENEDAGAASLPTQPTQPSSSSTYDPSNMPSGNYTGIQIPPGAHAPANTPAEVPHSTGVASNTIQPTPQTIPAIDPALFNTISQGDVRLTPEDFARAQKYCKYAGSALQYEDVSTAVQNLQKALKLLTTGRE
UniProt Q86VN1: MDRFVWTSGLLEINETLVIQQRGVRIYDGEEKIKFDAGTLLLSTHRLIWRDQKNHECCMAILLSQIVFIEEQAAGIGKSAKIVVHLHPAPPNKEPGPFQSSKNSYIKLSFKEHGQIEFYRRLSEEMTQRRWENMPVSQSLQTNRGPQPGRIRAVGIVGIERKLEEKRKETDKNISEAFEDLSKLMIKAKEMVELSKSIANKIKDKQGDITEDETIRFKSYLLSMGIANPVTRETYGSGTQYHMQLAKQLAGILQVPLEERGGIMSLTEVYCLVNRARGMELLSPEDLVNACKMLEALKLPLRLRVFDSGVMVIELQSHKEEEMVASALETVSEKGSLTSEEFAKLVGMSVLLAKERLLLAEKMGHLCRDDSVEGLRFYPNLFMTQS
UniProt Q8NI36: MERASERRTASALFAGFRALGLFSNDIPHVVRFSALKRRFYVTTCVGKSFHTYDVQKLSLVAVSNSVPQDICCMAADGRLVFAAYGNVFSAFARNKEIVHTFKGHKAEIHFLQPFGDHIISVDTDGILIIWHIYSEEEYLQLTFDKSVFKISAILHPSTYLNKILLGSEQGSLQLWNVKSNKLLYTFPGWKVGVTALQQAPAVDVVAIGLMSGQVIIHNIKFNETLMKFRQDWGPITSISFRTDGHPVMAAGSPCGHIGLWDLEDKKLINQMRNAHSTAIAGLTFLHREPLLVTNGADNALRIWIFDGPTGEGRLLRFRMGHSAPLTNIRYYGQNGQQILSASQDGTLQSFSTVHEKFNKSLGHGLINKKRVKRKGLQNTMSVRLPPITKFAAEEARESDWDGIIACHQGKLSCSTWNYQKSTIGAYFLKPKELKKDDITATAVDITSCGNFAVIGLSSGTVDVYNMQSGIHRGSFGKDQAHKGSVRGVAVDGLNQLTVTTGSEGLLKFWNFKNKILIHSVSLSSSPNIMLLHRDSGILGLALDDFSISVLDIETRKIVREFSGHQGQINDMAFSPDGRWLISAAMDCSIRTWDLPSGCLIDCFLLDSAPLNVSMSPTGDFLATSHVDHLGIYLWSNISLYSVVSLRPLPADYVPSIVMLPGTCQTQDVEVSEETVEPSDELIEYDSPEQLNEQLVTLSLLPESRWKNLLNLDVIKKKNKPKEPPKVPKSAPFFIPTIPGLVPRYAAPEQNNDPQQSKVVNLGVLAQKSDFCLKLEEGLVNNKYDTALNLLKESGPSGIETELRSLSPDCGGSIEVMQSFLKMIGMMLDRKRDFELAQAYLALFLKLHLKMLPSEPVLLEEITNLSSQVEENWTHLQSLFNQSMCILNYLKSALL

Legend:
Experiment in all cases: log2 fold change, soluble protein after heating vs DMSO (PISA); higher = thermal stabilisation; K562 lysate, 10 uM; active = over 0.2 and 3.5 SD of the protein, either way, in both replicates (recomputed)
alvocidib = compound: CN1CC[C@H](c2c(O)cc(O)c3c(=O)cc(-c4ccccc4Cl)oc23)[C@H](O)C1 [alvocidib]
Summary of the method: (§1)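 Dounce homogenisation of K562 pellets in PBS pH 7.4 with 1 mM MgCl2 produced a crude extract, used at 1 mg/mL protein. Exposure to 10 μM compound lasted 30 min, and aliquots were then heated for 3 min across 48°C-58°C, pooled and brought to 0.5% NP-40 at 4°C. The supernatant after 21,000xg for 90 min was quantified by TMTpro 16plex LC-MS/MS with channel sums equalised. Duplicate values are given as log-two fold change in thermal stability relative to solvent controls.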

Tubastatin A = compound: CN1CCc2c(c3ccccc3n2Cc2ccc(C(=O)NO)cc2)C1 [Tubastatin A]
Summary of the method: as §1

[1] = compound: CNC(=O)C1=CC=CC=C1NC2=NC(=NC=C2Cl)NC3=C(C=C(C=C3)N4CCOCC4)OC
Summary of the method: as §1

defactinib = compound: CNC(=O)c1ccc(Nc2ncc(C(F)(F)F)c(NCc3nccnc3N(C)S(C)(=O)=O)n2)cc1 [defactinib]
Summary of the method: as §1

[2] = compound: CNc1nc(-c2ccc3c(N)n[nH]c3c2)cc(N2C[C@@H](C(=O)NC3CCCCC3)CC[C@H]2C)n1
Summary of the method: as §1

encorafenib = compound: COC(=O)N[C@@H](C)CNc1nccc(-c2cn(C(C)C)nc2-c2cc(Cl)cc(NS(C)(=O)=O)c2F)n1 [encorafenib]
Summary of the method: as §1

[3] = compound: COC(=O)[C@H](CCSC)NC(=O)C1=C(C=C(C=C1)NC[C@H](CS)N)C2=CC=CC=C2
Summary of the method: as §1

alisertib = compound: COc1cc(Nc2ncc3c(n2)-c2ccc(Cl)cc2C(c2c(F)cccc2OC)=NC3)ccc1C(=O)O [alisertib]
Summary of the method: as §1

[4] = compound: COc1cc2nc(-c3cc(F)ccc3O)nc(N[C@@H]3CNC[C@H]3C(C)(C)O)c2cc1OC
Summary of the method: as §1

gefitinib = compound: COc1cc2ncnc(Nc3ccc(F)c(Cl)c3)c2cc1OCCCN1CCOCC1 [gefitinib]
Summary of the method: as §1

Measured: log2 fold change

XAB2 (UniProt Q9HCS7)
inactive: alvocidib -0.003 | Tubastatin A -0.039 | [1] 0.012 | defactinib 0.008 | [2] 0.014 | encorafenib -0.045 | [3] 0.2 | alisertib -0.017 | [4] 0.025 | gefitinib 0.046

WDR46 (UniProt O15213)
inactive: alvocidib -0.066 | Tubastatin A -0.047 | [1] -0.041 | defactinib 0.006 | [2] 0.052 | encorafenib -0.015 | [3] -0.026 | alisertib 0.101 | [4] 0.053 | gefitinib 0.136

WAC (UniProt Q9BTA9)
inactive: alvocidib -0.008 | Tubastatin A -0.035 | [1] 0.068 | defactinib 0.013 | [2] 0.007 | encorafenib -0.006 | [3] 0.118 | alisertib -0.019 | [4] -0.01 | gefitinib 0.009

WDR74 (UniProt Q6RFH5)
inactive: alvocidib 0.004 | Tubastatin A -0.023 | [1] 0.025 | defactinib -0.031 | [2] -0.034 | encorafenib 0.035 | [3] -0.016 | alisertib 0 | [4] -0.072 | gefitinib -0.002

VPS4A (UniProt Q9UN37)
inactive: alvocidib -0.004 | Tubastatin A -0.16 | [1] 0.025 | defactinib 0.01 | [2] -0.1 | encorafenib -0.004 | [3] 0.138 | alisertib 0 | [4] -0.004 | gefitinib -0.025

WASL (UniProt O00401)
inactive: alvocidib 0.096 | Tubastatin A 0.103 | [1] -0.021 | defactinib -0.079 | [2] -0.025 | encorafenib 0.005 | [3] -0.054 | alisertib -0.086 | [4] -0.029 | gefitinib 0.027

XPC (UniProt Q01831)
inactive: alvocidib 0.004 | Tubastatin A -0.04 | [1] -0.023 | defactinib 0.046 | [2] 0.001 | encorafenib 0.068 | [3] 0.029 | alisertib 0 | [4] 0.066 | gefitinib 0.039

WARS2 (UniProt Q9UGM6)
inactive: alvocidib -0.033 | Tubastatin A -0.001 | [1] 0.046 | defactinib 0.034 | [2] 0.055 | encorafenib -0.001 | [3] 0.029 | alisertib 0.054 | [4] -0.042 | gefitinib 0.069

VWA5A (UniProt O00534)
inactive: alvocidib -0.051 | Tubastatin A -0.022 | [1] 0.015 | defactinib -0.062 | [2] 0.02 | encorafenib -0.015 | [3] -0.032 | alisertib -0.007 | [4] 0.006 | gefitinib -0.028

WDR4 (UniProt P57081)
inactive: alvocidib -0.012 | Tubastatin A -0.035 | [1] 0.032 | defactinib -0.027 | [2] 0.005 | encorafenib 0.046 | [3] -0.1 | alisertib 0.001 | [4] 0.007 | gefitinib -0.008

WDR81 (UniProt Q562E7)
inactive: alvocidib 0.002 | Tubastatin A -0.078 | [1] 0.029 | defactinib 0.049 | [2] -0.054 | encorafenib 0.024 | [3] 0.055 | alisertib 0.027 | [4] 0.043 | gefitinib -0.054

WDR43 (UniProt Q15061)
inactive: alvocidib -0.009 | Tubastatin A -0.022 | [1] 0.028 | defactinib 0.006 | [2] 0.015 | encorafenib 0.015 | [3] -0.052 | alisertib -0.004 | [4] -0.012 | gefitinib -0.064

VPS39 (UniProt Q96JC1)
active: alvocidib 0.268
inactive: Tubastatin A -0.06 | [1] 0.036 | defactinib 0.011 | [2] 0.007 | encorafenib 0.043 | [3] -0.218 | alisertib 0.041 | [4] 0.026 | gefitinib -0.041

VPS52 (UniProt Q8N1B4)
inactive: alvocidib -0.016 | Tubastatin A -0.019 | [1] -0.01 | defactinib 0.02 | [2] -0.034 | encorafenib 0.046 | [3] 0.006 | alisertib 0.028 | [4] -0.009 | gefitinib -0.013

WIPF1 isoform 3 (UniProt O43516)
inactive: alvocidib 0.011 | Tubastatin A 0.009 | [1] -0.039 | defactinib -0.053 | [2] -0.164 | encorafenib 0.007 | [3] -0.03 | alisertib -0.082 | [4] -0.041 | gefitinib 0.003

WDR89 (UniProt Q96FK6)
inactive: alvocidib -0.059 | Tubastatin A 0.039 | [1] -0.005 | defactinib 0.034 | [2] 0.012 | encorafenib 0.07 | [3] -0.084 | alisertib -0.069 | [4] 0.054 | gefitinib -0.163

VRK3 (UniProt Q8IV63)
inactive: alvocidib 0.008 | Tubastatin A -0.028 | [1] -0.041 | defactinib -0.008 | [2] 0.051 | encorafenib 0.007 | [3] -0.015 | alisertib -0.025 | [4] -0.167 | gefitinib 0.001

WDR75 (UniProt Q8IWA0)
inactive: alvocidib -0.061 | Tubastatin A -0.115 | [1] 0.026 | defactinib -0.035 | [2] -0.031 | encorafenib 0.038 | [3] 0.028 | alisertib 0.08 | [4] -0.078 | gefitinib -0.079

WNK1 isoform 7 (UniProt Q9H4A3)
inactive: alvocidib 0.012 | Tubastatin A -0.005 | [1] 0.017 | defactinib -0.012 | [2] -0.025 | encorafenib 0.015 | [3] 0.027 | alisertib 0.022 | [4] 0.022 | gefitinib -0.002

WIZ isoform 3 (UniProt O95785)
inactive: alvocidib -0.052 | Tubastatin A 0.005 | [1] 0.07 | defactinib 0.001 | [2] 0.023 | encorafenib 0.053 | [3] -0.049 | alisertib -0.002 | [4] 0.008 | gefitinib -0.038

VPS45 (UniProt Q9NRW7)
inactive: alvocidib 0.002 | Tubastatin A -0.001 | [1] 0.001 | defactinib -0.012 | [2] -0.031 | encorafenib 0.033 | [3] 0.01 | alisertib -0.018 | [4] -0.011 | gefitinib 0.002

VPS13C (UniProt Q709C8)
inactive: alvocidib 0.008 | Tubastatin A 0.034 | [1] 0.002 | defactinib 0.014 | [2] 0.023 | encorafenib 0.192 | [3] -0.131 | alisertib 0.111 | [4] 0.157 | gefitinib 0.131

VPS13A (UniProt Q96RL7)
inactive: alvocidib -0.041 | Tubastatin A 0.037 | [1] 0.037 | defactinib 0.051 | [2] -0.001 | encorafenib 0.181 | [3] -0.064 | alisertib 0.042 | [4] 0.104 | gefitinib 0.069

WDR48 (UniProt Q8TAF3)
inactive: alvocidib -0.021 | Tubastatin A 0.031 | [1] -0.012 | defactinib -0.031 | [2] -0.015 | encorafenib 0.015 | [3] -0.057 | alisertib -0.013 | [4] -0.008 | gefitinib 0.021

Two successive entries already listed:
VPS45 (UniProt Q9NRW7)
inactive: alvocidib 0.002 | Tubastatin A -0.001 | [1] 0.001 | defactinib -0.012 | [2] -0.031 | encorafenib 0.033 | [3] 0.01 | alisertib -0.018 | [4] -0.011 | gefitinib 0.002

VPS13C (UniProt Q709C8)
inactive: alvocidib 0.008 | Tubastatin A 0.034 | [1] 0.002 | defactinib 0.014 | [2] 0.023 | encorafenib 0.192 | [3] -0.131 | alisertib 0.111 | [4] 0.157 | gefitinib 0.131

More records

VPS37C (UniProt A5D8V6)
inactive: alvocidib 0.026 | Tubastatin A 0.064 | [1] -0.005 | defactinib 0.022 | [2] 0.033 | encorafenib 0.089 | [3] -0.101 | alisertib 0.057 | [4] -0.009 | gefitinib -0.009

VTA1 (UniProt Q9NP79)
inactive: alvocidib 0.006 | Tubastatin A -0.006 | [1] 0.031 | defactinib -0.012 | [2] -0.041 | encorafenib 0.015 | [3] -0.006 | alisertib 0.033 | [4] 0.007 | gefitinib -0.018

WAPL isoform 3 (UniProt Q7Z5K2)
inactive: alvocidib -0.032 | Tubastatin A -0.058 | [1] -0.009 | defactinib 0.025 | [2] 0.015 | encorafenib 0.024 | [3] 0.002 | alisertib -0.006 | [4] 0.014 | gefitinib -0.004

VPS37A (UniProt Q8NEZ2)
inactive: alvocidib 0.028 | Tubastatin A -0.043 | [1] 0.002 | defactinib 0.008 | [2] -0.057 | encorafenib 0.017 | [3] -0.017 | alisertib -0.04 | [4] 0.016 | gefitinib 0.002

VPS36 (UniProt Q86VN1)
inactive: alvocidib 0 | Tubastatin A 0.009 | [1] -0.019 | defactinib 0.019 | [2] 0.005 | encorafenib -0.005 | [3] 0.012 | alisertib -0.006 | [4] -0.016 | gefitinib 0.008

WDR36 (UniProt Q8NI36)
inactive: alvocidib 0.021 | Tubastatin A -0.102 | [1] 0.028 | defactinib -0.018 | [2] -0.062 | encorafenib -0.025 | [3] 0.134 | alisertib 0.008 | [4] 0.004 | gefitinib -0.03
